Measured values reported in article PMC10369257.
These are yes or no findings as the source states them, for the method shown. In cells and extracts the contact can be indirect. Some results given as binding are weak or reduced against the parent protein; the word gives no strength.

Protein sequences, listed by entry. Tags and fused reporters are not part of them.
UniProt P08183: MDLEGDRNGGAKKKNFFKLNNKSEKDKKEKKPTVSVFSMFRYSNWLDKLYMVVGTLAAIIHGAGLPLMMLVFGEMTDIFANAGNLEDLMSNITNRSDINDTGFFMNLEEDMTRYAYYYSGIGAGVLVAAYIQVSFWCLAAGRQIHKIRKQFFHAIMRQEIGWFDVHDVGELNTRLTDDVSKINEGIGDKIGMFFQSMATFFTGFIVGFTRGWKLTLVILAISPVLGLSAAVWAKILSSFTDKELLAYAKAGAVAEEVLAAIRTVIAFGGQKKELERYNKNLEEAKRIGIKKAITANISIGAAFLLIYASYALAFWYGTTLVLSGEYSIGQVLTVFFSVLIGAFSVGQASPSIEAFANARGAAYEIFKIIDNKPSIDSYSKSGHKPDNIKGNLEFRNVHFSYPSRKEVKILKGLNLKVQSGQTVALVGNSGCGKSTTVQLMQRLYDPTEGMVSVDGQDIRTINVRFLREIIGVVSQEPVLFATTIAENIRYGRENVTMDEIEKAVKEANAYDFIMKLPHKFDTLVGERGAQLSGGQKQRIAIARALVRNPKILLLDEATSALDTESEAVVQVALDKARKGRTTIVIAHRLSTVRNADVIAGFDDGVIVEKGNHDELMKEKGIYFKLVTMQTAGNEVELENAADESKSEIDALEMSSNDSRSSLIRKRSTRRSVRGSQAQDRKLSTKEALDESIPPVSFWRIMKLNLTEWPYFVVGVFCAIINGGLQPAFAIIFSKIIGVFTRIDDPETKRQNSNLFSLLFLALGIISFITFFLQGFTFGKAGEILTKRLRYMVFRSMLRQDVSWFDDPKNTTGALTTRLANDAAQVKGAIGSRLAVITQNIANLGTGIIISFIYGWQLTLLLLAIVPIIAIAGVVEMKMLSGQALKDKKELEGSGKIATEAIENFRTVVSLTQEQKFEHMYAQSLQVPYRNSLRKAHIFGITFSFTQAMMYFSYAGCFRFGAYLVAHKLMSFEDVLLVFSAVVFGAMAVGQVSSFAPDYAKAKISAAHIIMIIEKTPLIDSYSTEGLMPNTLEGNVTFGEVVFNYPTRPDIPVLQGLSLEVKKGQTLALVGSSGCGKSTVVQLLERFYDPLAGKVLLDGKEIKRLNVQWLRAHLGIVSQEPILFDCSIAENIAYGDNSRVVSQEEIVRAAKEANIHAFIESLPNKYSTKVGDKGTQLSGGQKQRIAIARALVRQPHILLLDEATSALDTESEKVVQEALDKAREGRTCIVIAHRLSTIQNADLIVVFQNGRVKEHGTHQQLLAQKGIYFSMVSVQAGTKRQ
UniProt Q03135: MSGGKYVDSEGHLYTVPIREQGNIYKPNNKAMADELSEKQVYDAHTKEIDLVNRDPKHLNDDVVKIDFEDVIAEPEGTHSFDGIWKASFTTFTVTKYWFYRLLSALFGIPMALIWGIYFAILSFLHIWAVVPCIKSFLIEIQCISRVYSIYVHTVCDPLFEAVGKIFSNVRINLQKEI

Biological target: P-glycoprotein (human (endogenous in 5637)) (UniProt P08183)
Test: co-IP; endogenous P-gp immunoprecipitated from 5637-GEM cells (LIST knockdown, c-Src knockdown or c-Src inhibitor dasatinib), immunoblotting for Cav1

Substance: Cav1 (from UniProt Q03135 1-178)
- binding: binds
